{"source": "patent US6613777B1", "about": "“CRF antagonistic pyrazolo[4,3-b]pyridines” (priority 1998, dated 2003)", "note": "Some entries share one result that the patent states for a list of compounds."}
{"target": "T1, human CRF receptors (Homo sapiens, UniProt P34998)", "T1 construct": "expressed in transfected cells", "T1 sequence (P34998 24-415)": "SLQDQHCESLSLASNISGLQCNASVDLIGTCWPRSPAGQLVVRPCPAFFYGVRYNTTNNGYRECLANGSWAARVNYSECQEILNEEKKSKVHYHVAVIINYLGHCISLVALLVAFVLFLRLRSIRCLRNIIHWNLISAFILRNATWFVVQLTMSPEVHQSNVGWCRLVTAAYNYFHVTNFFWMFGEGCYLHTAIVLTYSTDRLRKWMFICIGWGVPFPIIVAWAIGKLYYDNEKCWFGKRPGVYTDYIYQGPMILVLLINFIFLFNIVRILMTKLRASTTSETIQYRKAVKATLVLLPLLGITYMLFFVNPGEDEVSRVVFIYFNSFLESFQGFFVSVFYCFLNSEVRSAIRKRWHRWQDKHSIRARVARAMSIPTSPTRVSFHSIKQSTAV", "experiment": "CRF receptor binding activity (radioligand binding assay)", "conditions": "displacement of [125I] tyrosine-ovine CRF (approx. 200 pM); cells stably transfected with human CRF receptors; 2 hours at 22° C.", "units": {"Ki": "nM"}}
{"smiles": "CCCN(CC1CC1)c1cc(C)nc2c(-c3ccc(C)cc3Cl)nn(CC)c12", "note": "[Compound 81]", "Ki": "≤ 250"}
{"smiles": "CCCN(C)c1cc(C)nc2c(-c3ccc(C)cc3Cl)nn(C)c12", "note": "[Compound 88]", "Ki": "≤ 250"}
{"smiles": "CCCCN(CCCC)c1cc(C)nc2c(-c3ccc(Cl)cc3Cl)nn(C(C)C)c12", "note": "[Compound 20]", "Ki": "≤ 250"}
{"smiles": "CCCCCN(CCCC)c1cc(C)nc2c(-c3ccc(Cl)cc3Cl)nn(C)c12", "note": "[Compound 59]", "Ki": "≤ 250"}
{"smiles": "CCCN(CC)c1cc(C)nc2c(-c3ccc(C)cc3Cl)nn(C)c12", "note": "[Compound 85]", "Ki": "≤ 250"}
{"smiles": "CCCCN(CCCOC)c1cc(C)nc2c(-c3ccc(Cl)cc3Cl)nn(C)c12", "note": "[Compound 56]", "Ki": "≤ 250"}
{"smiles": "CCCCN(CC)c1cc(C)nc2c(-c3ccc(Cl)cc3Cl)nn(CC)c12", "note": "[Compound 29]", "Ki": "≤ 250"}
{"smiles": "COCCN(c1cc(C)nc2c(-c3ccc(Cl)cc3Cl)nn(C)c12)C(C)C", "note": "[Compound 32]", "Ki": "≤ 250"}
{"smiles": "CCN(CC1CC1)c1cc(C)nc2c(-c3ccc(Cl)cc3Cl)nn(C)c12", "note": "[Compound 45]", "Ki": "≤ 250"}
{"smiles": "CCCN(CC1CC1)c1cc(C)nc2c(-c3ccc(Cl)cc3Cl)nn(CC)c12", "note": "[Compound 25]", "Ki": "≤ 250"}
{"smiles": "CCCCN(CCCC)c1cc(C)nc2c(-c3c(C)cc(C)cc3C)n(C)nc12", "note": "[Compound 110]", "Ki": "≤ 250"}
{"smiles": "CCCCN(CC)c1cc(C)nc2c(-c3ccc(Cl)cc3Cl)n[nH]c12", "note": "[Compound 27]", "Ki": "≤ 250"}
{"smiles": "CCN(c1cc(C)nc2c(-c3c(C)cc(C)cc3Cl)nn(C)c12)C(C)C", "note": "[Compound 104]", "Ki": "≤ 250"}
{"smiles": "CCCN(CCC)c1cc(C)nc2c(-c3ccc(Cl)cc3Cl)n(C)nc12", "note": "[Compound 1, 5-methyl-7-(dipropylamino)-2-methyl-3-(2,4-dichlorophenyl)pyrazolo[4,3-b]pyridine]", "Ki": "≤ 250"}
{"smiles": "CCCCN(C)c1cc(C)nc2c(-c3ccc(C)cc3Cl)nn(C)c12", "note": "[Compound 90]", "Ki": "≤ 250"}
{"smiles": "CCCCN(CC)c1cc(C)nc2c(-c3cnc(N(C)C)cc3C)nn(C)c12", "note": "[Compound 119]", "Ki": "≤ 250"}
{"smiles": "CCCCCN(CC1CC1)c1cc(C)nc2c(-c3ccc(Cl)cc3Cl)nn(C)c12", "note": "[Compound 47]", "Ki": "≤ 250"}
{"smiles": "CCCCN(CCc1ccc(OC)cc1)c1cc(C)nc2c(-c3ccc(Cl)cc3Cl)nn(C)c12", "note": "[Compound 60]", "Ki": "≤ 250"}
{"smiles": "CCCN(CCC)c1cc(C)nc2c(-c3ccc(C)cc3Cl)nn(C)c12", "note": "[Compound 84]", "Ki": "≤ 250"}
{"smiles": "CCCCN(CCCC)c1cc(C)nc2c(-c3ccc(Cl)cc3Cl)nn(CC)c12", "note": "[Compound 16]", "Ki": "≤ 250"}
{"smiles": "COCCN(CCOC)c1cc(C)nc2c(-c3ccc(Cl)cc3Cl)nn(C)c12", "note": "[Compound 5]", "Ki": "≤ 250"}
{"smiles": "CCCCN(CCCC)c1cc(C)nc2c(-c3ccc(C)cc3Cl)nn(C)c12", "note": "[Compound 74]", "Ki": "≤ 250"}
{"smiles": "CCCCN(CC)c1cc(C)nc2c(-c3ccc(Cl)cc3Cl)n(C)nc12", "note": "[Compound 28]", "Ki": "≤ 250"}
{"smiles": "CCCCN(CC1CC1)c1cc(C)nc2c(-c3c(C)cc(C)cc3Cl)nn(C)c12", "note": "[Compound 102]", "Ki": "≤ 250"}
{"smiles": "CCCCN(CCSC)c1cc(C)nc2c(-c3ccc(Cl)cc3Cl)nn(C)c12", "note": "[Compound 71]", "Ki": "≤ 250"}
{"smiles": "CCCCN(CCc1cccc(OC)c1)c1cc(C)nc2c(-c3ccc(Cl)cc3Cl)nn(C)c12", "note": "[Compound 66]", "Ki": "≤ 250"}
{"smiles": "CCCCN(CC)c1cc(C)nc2c(-c3ccc(OC)cc3C)nn(C)c12", "note": "[Compound 123]", "Ki": "≤ 250"}
{"smiles": "CCCCN(Cc1ccncc1)c1cc(C)nc2c(-c3ccc(Cl)cc3Cl)nn(C)c12", "note": "[Compound 67]", "Ki": "≤ 250"}
{"smiles": "CCCN(CC1CC1)c1cc(C)nc2c(-c3ccc(C)cc3Cl)n[nH]c12", "note": "[Compound 78]", "Ki": "≤ 250"}
{"smiles": "CCCCCN(CCC)c1cc(C)nc2c(-c3ccc(Cl)cc3Cl)nn(C)c12", "note": "[Compound 58]", "Ki": "≤ 250"}
{"smiles": "Cc1cc(N(CCC(C)C)CCC(C)C)c2c(n1)c(-c1ccc(Cl)cc1Cl)nn2C", "note": "[Compound 41]", "Ki": "≤ 250"}
{"smiles": "CCCCN(CCCC)c1cc(C)nc2c(-c3ccc(C)cc3Cl)nn(CC)c12", "note": "[Compound 79]", "Ki": "≤ 250"}
{"smiles": "CCCCN(CCCC)c1cc(C)nc2c(-c3ccc(OC)cc3Cl)n[nH]c12", "note": "[Compound 112]", "Ki": "≤ 250"}
{"smiles": "CCCCN(CCCC)c1cc(C)nc2c(-c3ccc(C)cc3Cl)n(CC)nc12", "note": "[Compound 80]", "Ki": "≤ 250"}
{"smiles": "CCCN(CCC)c1cc(C)nc2c(-c3ccccc3)n(C)nc12", "note": "[Compound 107]", "Ki": "≤ 250"}
{"smiles": "Cc1cc(N(CC(C)C)CC2CC2)c2c(n1)c(-c1ccc(Cl)cc1Cl)nn2C", "note": "[Compound 49]", "Ki": "≤ 250"}
{"smiles": "CCCCN(CC)c1cc(C)nc2c(-c3c(C)cc(C)cc3Cl)nn(CC)c12", "note": "[Compound 100]", "Ki": "≤ 250"}
{"smiles": "CCN(Cc1ccc(C)cc1)c1cc(C)nc2c(-c3ccc(Cl)cc3Cl)nn(C)c12", "note": "[Compound 43]", "Ki": "≤ 250"}
{"smiles": "CCCCN(Cc1ccco1)c1cc(C)nc2c(-c3ccc(Cl)cc3Cl)nn(C)c12", "note": "[Compound 69]", "Ki": "≤ 250"}
{"smiles": "CCCCN(CC)c1cc(C)nc2c(-c3c(C)cc(C)cc3Cl)nn(C)c12", "note": "[Compound 95]", "Ki": "≤ 250"}
{"smiles": "CCCCN(CCCC)c1cc(C)nc2c(-c3ccc(C)cc3Cl)n[nH]c12", "note": "[Compound 77]", "Ki": "≤ 250"}
{"smiles": "COCCN(C)c1cc(C)nc2c(-c3ccc(Cl)cc3Cl)nn(C)c12", "note": "[Compound 6]", "Ki": "≤ 250"}
{"smiles": "CCCN(C)c1cc(C)nc2c(-c3ccc(Cl)cc3Cl)nn(C)c12", "note": "[Compound 8]", "Ki": "≤ 250"}
{"smiles": "CCCCN(CCC)c1cc(C)nc2c(-c3ccc(Cl)cc3Cl)nn(C)c12", "note": "[Compound 15]", "Ki": "≤ 250"}
{"smiles": "CCCN(CC)c1cc(C)nc2c(-c3ccc(Cl)cc3Cl)nn(C)c12", "note": "[Compound 64]", "Ki": "≤ 250"}
{"smiles": "CCCCN(CCC(C)C)c1cc(C)nc2c(-c3ccc(Cl)cc3Cl)nn(C)c12", "note": "[Compound 63]", "Ki": "≤ 250"}
{"smiles": "CCN(Cc1ccccc1F)c1cc(C)nc2c(-c3ccc(Cl)cc3Cl)nn(C)c12", "note": "[Compound 44]", "Ki": "≤ 250"}
{"smiles": "CCCN(CC1CC1)c1cc(C)nc2c(-c3ccc(C)cc3Cl)nn(C)c12", "note": "[Compound 87]", "Ki": "≤ 250"}
{"smiles": "CCCCCN(CCOC)c1cc(C)nc2c(-c3ccc(Cl)cc3Cl)nn(C)c12", "note": "[Compound 37]", "Ki": "≤ 250"}
{"smiles": "CCCCN(CC1CCCO1)c1cc(C)nc2c(-c3ccc(Cl)cc3Cl)nn(C)c12", "note": "(centres unmarked) [Compound 70]", "Ki": "≤ 250"}
{"smiles": "CCCN(CC1CC1)c1cc(C)nc2c(-c3ccc(Cl)cc3Cl)n(CC)nc12", "note": "[Compound 26]", "Ki": "≤ 250"}
{"smiles": "COCCN(CCOC)c1cc(C)nc2c(-c3c(C)cc(C)cc3Cl)nn(C)c12", "note": "[Compound 103]", "Ki": "≤ 250"}
{"smiles": "CCCN(Cc1ccccc1)c1cc(C)nc2c(-c3ccc(Cl)cc3Cl)nn(C)c12", "note": "[Compound 52]", "Ki": "≤ 250"}
{"smiles": "CCCCN(CCCC)c1cc(C)nc2c(-c3c(C)cc(C)cc3Cl)nn(C)c12", "note": "[Compound 93]", "Ki": "≤ 250"}
{"smiles": "CCCCN(CCC)c1cc(C)nc2c(-c3ccc(C)cc3Cl)nn(C)c12", "note": "[Compound 75]", "Ki": "≤ 250"}
{"smiles": "CCCCN(CCCC)c1cc(C)nc2c(-c3ccc(OC)cc3Cl)nn(C)c12", "note": "[Compound 113]", "Ki": "≤ 250"}
{"smiles": "COCCN(C)c1cc(C)nc2c(-c3ccc(C)cc3Cl)nn(C)c12", "note": "[Compound 91]", "Ki": "≤ 250"}
{"smiles": "CCCCCN(CCCC)c1cc(C)nc2c(-c3c(C)cc(C)cc3C)nn(C)c12", "note": "[Compound 120]", "Ki": "≤ 250"}
{"smiles": "CCCCN(CCCC)c1cc(C)nc2c(-c3ccc(OC)cc3Cl)n(C)nc12", "note": "[Compound 114]", "Ki": "≤ 250"}
{"smiles": "CCCN(c1cc(C)nc2c(-c3ccc(C)cc3Cl)nn(C)c12)C(C)CC", "note": "(centres unmarked) [Compound 86]", "Ki": "≤ 250"}
{"smiles": "C=CCN(CC=C)c1cc(C)nc2c(-c3ccc(C)cc3Cl)nn(C)c12", "note": "[Compound 89]", "Ki": "≤ 250"}
{"smiles": "Cc1ccc(-c2nn(C)c3c(N4CCCCC4C)cc(C)nc23)c(Cl)c1", "note": "(centres unmarked) [Compound 115]", "Ki": "≤ 250"}
